Inconclusive means that the source gave no clear call. Such entries were picked first, then a sample of the others. A potency beside an inconclusive call is a rough fit, not a confirmed value. Calls of active or inactive are those of the source. Calls follow the shape of the dose curve; as a rule, active = well fitted curve in the direction sought with a large enough effect; inconclusive = small, poorly fitted or top-dose-only effect, or another doubt; inactive = no such curve, though single readings can be large; an effect the other way counts as inactive or inconclusive.
Experiments:
[1] = target: Rap guanine nucleotide exchange factor 4 (Homo sapiens) (UniProt Q8WZA2); experiment: Confirmatory qHTS for antagonist of cAMP-regulated guanine nucleotide exchange factor 4 (EPAC2) (AID 1645885); conditions: activity change, negative = inhibition: at 12.7 µM (top of the series) unless noted; also: nearly all actives have a fitted effect of over 25% in size; as to activity change, negative = inhibition: % is scaled to controls: 0 for no effect and ±100 for the full control effect
[2] = target: Rap guanine nucleotide exchange factor 3 (Homo sapiens) (UniProt O95398); experiment: Counterscreen qHTS for agonist of cAMP-regulated guanine nucleotide exchange factor 3 (EPAC1) (AID 1645889); conditions: EPAC1 Rap1B-BODIPY-GDP exchange, fluorescence; activation: at 154 µM (top of the series) unless noted; also: nearly all actives have a fitted effect of over 40% in size; as to activation: % of control where 0% means no effect
Procedure, shortened: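 Measured: fluorescence of BODIPY-GDP bound to Rap1B, which falls as exchange proceeds. Conditions include 50 uM competing GDP, 5 and 30 min reads, and a later cAMP challenge for antagonist detection.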
Potency is read from the fitted curve at half-maximal effect.

Sequences of proteins named here, by UniProt entry; tags and fusion partners are left off. A change or cut given only in a name is not applied to a line headed by its entry.
UniProt Q8WZA2: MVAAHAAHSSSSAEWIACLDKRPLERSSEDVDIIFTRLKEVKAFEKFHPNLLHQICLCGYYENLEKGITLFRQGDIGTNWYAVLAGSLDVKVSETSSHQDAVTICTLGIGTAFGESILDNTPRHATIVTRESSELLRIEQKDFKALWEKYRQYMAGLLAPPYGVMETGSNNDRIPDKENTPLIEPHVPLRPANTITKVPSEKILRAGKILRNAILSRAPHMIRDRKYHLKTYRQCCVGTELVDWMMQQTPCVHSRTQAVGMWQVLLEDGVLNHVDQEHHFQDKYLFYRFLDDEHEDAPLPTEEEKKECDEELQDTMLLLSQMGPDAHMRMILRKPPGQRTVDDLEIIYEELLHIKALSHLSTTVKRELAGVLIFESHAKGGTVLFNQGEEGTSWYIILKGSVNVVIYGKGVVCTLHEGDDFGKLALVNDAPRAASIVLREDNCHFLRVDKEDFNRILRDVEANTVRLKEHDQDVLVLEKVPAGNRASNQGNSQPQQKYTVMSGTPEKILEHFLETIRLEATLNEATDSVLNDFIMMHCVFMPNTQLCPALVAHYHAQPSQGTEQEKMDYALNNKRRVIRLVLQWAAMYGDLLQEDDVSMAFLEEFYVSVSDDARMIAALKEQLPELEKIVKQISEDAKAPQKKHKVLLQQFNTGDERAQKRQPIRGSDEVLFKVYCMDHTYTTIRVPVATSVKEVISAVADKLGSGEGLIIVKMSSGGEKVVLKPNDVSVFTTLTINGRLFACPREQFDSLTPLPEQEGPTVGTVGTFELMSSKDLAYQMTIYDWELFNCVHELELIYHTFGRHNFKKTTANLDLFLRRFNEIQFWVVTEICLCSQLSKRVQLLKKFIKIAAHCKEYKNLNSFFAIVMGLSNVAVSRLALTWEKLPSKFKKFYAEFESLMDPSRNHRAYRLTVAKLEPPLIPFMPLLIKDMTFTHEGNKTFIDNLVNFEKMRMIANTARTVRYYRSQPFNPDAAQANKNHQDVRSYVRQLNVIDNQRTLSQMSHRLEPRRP

For `Cc1nc2c(C(=O)NCCC3=CCCCC3)c[nH]n2c(=O)c1Cl`, the Potency [1] was active: 6.75 µM and the Potency [2] was “inactive”.
In the case of `COc1ccc2c(c1)C(CC(C)=O)N(c1ccc(-c3cccnc3)cc1)C(c1ccsc1)=C2` (stereo not given), the Potency [1] is reported as inconclusive: 30.1 µM [inhibitor, full curve, poor fit] and the Potency [2] is reported as inconclusive: 2.51 µM [activator, full curve, poor fit].
`COC(=O)C1=CN(Cc2ccc(OC)c(OC)c2)C=C(C(=O)OC)C1c1cccc(F)c1` was tested, and the Potency [1] was “inactive” and the Potency [2] was inconclusive: 0.0089 µM [activator, full curve, poor fit].
For `Cc1ccc(N(C(=O)c2ccccc2Cl)C2=NC(C)CS2)c(C)c1` (stereo not given), the Potency [1] was inconclusive: 5.36 µM [inhibitor, partial curve, poor fit].
For `COc1cc(/C=C2\C(=N)N3N=C(S(C)(=O)=O)SC3=NC2=O)cc(OC)c1OCCOc1ccccc1C`, the Potency [1] was inconclusive: 30.1 µM [inhibitor, partial curve] and the Potency [2] was inconclusive: 28.2 µM [activator, partial curve, poor fit].
With `O=C(COc1ccccc1Cl)Nc1ccc(C(=O)c2ccc(C(=O)O)cc2)cc1` the Potency [1] was inconclusive: 26.9 µM [inhibitor, partial curve, poor fit] and the activation [2] was inconclusive: 34.9% [activator].
For `COC(=O)C1=C(C)N(CCCC(=O)O)C(=O)NC1c1ccc(-c2ccccc2)cc1` (stereo not given), the Potency [1] was inconclusive: 84.9 µM [inhibitor, partial curve, poor fit].
`CC(=O)c1ccc(N2CCN(C(=O)c3cc(-c4cccnc4)nc4ccc(Br)cc34)CC2)cc1` was tested, and the Potency [1] was inconclusive: 84.9 µM [inhibitor, single point] and the Potency [2] was inconclusive: 5.01 µM [activator, partial curve, poor fit].
`COC(C(=O)Nc1ccc(Br)cc1F)c1ccccc1` (stereo not given) was tested, and the Potency [1] was inconclusive: 33.8 µM [inhibitor, full curve] and the activation [2] was inconclusive: 46.7% [activator].
With `Cc1cc(NS(=O)(=O)c2ccc(NC(=O)Cc3ccc(Cl)c(Cl)c3)cc2)no1` the Potency [1] was “inactive” and the activation [2] was inconclusive: 24.4% [activator].
In the case of `Cc1nnc(SCC(=O)Nc2sccc2C#N)s1`, the Potency [1] is reported as inconclusive: 0.953 µM [inhibitor, partial curve, poor fit] and the Potency [2] is reported as active: 0.0178 µM.
With `CSc1nnc(-c2ccccc2)c(-c2ccccc2)n1` the Potency [1] was active: 19 µM and the Potency [2] was inconclusive: 39.8 µM [activator, partial curve, poor fit].
For `COCCN(C(=O)c1cc2c(s1)CCCCC2)c1c(N)n(Cc2ccccc2)c(=O)[nH]c1=O`, the Potency [1] was inconclusive: 37.9 µM [inhibitor, single point] and the activation [2] was inconclusive: 21.6% [activator].
With `Cc1ccc(CN2C(=O)CSC2c2ccccc2F)cc1` (stereo not given) the Potency [1] was active: 33.8 µM and the activation [2] was inconclusive: 51.9% [activator].
In the case of `COc1ccc(N2C(=O)CSC2c2cccc(F)c2)c(OC)c1` (stereo not given), the Potency [1] is reported as inconclusive: 4.26 µM [inhibitor, partial curve] and the activation [2] is reported as inactive: 1.09% [at 30.8 µM].
In the case of `O=C(CN1C(=O)c2ccccc2C1=O)Nc1cc([N+](=O)[O-])ccc1O`, the Potency [1] is reported as inconclusive: 95.3 µM [inhibitor, single point] and the Potency [2] is reported as inconclusive: 0.0025 µM [activator, full curve, poor fit].
For `CC1=C(C(=O)OC2CCCC2)C(c2c(Cl)cccc2Cl)CC(=O)N1` (stereo not given), the Potency [1] was “inactive” and the Potency [2] was inconclusive: 50.1 µM [activator, partial curve].
For `Cc1ccc(C(=O)OCC(=O)Nc2sccc2C(N)=O)cc1NC(=O)c1ccco1`, the Potency [1] was “inactive” and the Potency [2] was inconclusive: 0.0089 µM [activator, full curve].
For `Cc1ccc(S(=O)(=O)N2[C@@H](c3ccc(F)cc3)C(C(=O)O)=CC[C@H]2c2ccc(C(C)C)cc2)cc1`, the Potency [1] was inconclusive: 42.6 µM [inhibitor, partial curve] and the Potency [2] was “inactive”.
In the case of `O=C(c1ccccc1)C(c1ccccc1)c1ccccc1`, the Potency [1] is reported as inconclusive: 8.49 µM [inhibitor, partial curve, poor fit] and the activation [2] is reported as inactive: 12.8% [at 30.8 µM].
In the case of `O=C(Cc1ccc(F)cc1)Nc1ccccc1Sc1ccccc1`, the Potency [1] is reported as inconclusive: 23.9 µM [inhibitor, full curve] and the activation [2] is reported as inconclusive: 29.1% [activator].

From PubChem BioAssay (NCATS)
